Reference: PubChem BioAssay AID504327 (National Center for Advancing Translational Sciences (NCATS), 2011)
The campaign covered roughly 390,000 compounds. About 820 (0.21%) were called active. The inconclusive results got no clear call from the source; some entries with a clear call stand among them for comparison. Calls follow the shape of the dose curve; as a rule, active = well fitted inhibition curve with a large enough effect; inconclusive = small, poorly fitted or top-dose-only effect, or another doubt; inactive = no such curve, though single readings can be large or run the other way. Potencies beside an inconclusive call are fits to weak or partial responses and may not hold up.

Protein sequences, listed by entry. Tags and fused reporters are not part of them.
UniProt Q92830, whole entry, looked up: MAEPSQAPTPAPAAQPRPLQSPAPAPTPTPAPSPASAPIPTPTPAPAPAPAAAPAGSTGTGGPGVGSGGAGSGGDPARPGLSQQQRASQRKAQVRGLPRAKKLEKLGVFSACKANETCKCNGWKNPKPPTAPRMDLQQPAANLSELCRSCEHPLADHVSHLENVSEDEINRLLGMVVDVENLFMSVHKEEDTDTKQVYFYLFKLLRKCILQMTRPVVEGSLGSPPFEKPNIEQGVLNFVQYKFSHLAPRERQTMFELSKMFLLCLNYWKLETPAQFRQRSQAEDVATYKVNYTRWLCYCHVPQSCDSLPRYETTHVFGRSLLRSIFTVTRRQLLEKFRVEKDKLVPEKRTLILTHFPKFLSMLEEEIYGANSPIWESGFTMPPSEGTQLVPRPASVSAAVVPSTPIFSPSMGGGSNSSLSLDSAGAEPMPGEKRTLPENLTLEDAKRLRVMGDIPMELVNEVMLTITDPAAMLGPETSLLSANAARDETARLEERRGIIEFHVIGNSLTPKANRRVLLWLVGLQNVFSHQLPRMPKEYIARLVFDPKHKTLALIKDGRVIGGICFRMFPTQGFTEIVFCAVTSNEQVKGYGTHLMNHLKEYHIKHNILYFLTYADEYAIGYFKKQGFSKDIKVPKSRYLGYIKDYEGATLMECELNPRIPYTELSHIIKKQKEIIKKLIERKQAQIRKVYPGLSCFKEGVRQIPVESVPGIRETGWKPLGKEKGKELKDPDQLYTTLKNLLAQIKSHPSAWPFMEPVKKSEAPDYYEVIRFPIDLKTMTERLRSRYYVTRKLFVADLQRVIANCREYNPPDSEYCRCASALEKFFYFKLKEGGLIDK

molecular target: Histone acetyltransferase KAT2A (Homo sapiens) (UniProt Q92830); assay: qHTS Assay for Inhibitors of GCN5L2; settings: GCN5L2 HAT assay, ThioGlo1 CoA-SH fluorescence; activity change, negative = inhibition: at 58.9 µM (top of the series) unless noted
How it was run: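 GCN5L2 (20nM final) in 50mM HEPES, 0.1mM EDTA pH 7.5, 0.01% Tween-20 was preincubated 15 min at room temperature with compound, then given ThioGlo1 (50uM), H3(1-25) peptide (75uM) and acetyl-CoA (70uM); CoA-thiol fluorescence (Ex340/Em540) was read at 0 and 20 min.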
% is scaled to controls: 0 for no effect and ±100 for the full control effect; potency is read from the fitted curve at half-maximal effect.

Structure (SMILES)	Potency	activity change, negative = inhibition
COc1ccc(CNC(=O)C2CCCN(S(=O)(=O)c3ccc(F)cc3)C2)cc1 (stereo unspecified)	inconclusive: 1.12 µM [inhibitor, partial curve, poor fit]	
CCN(CCCNC(=O)C1CCCN(S(=O)(=O)c2cnc[nH]2)C1)c1ccccc1 (stereo unspecified)	inconclusive: 25.1 µM [inhibitor, single point]	
CCOC(=O)c1cc(C(C)(C)C)n(CCCN2CCOCC2)c1C		inactive: -5.57%
Cc1cc(=O)nc2c3ccccc3n(CC(=O)NCCCN3CCCC3=O)n12		inactive: 0.855%
COc1ccc(-c2cc(=O)c3cc(OCC(=O)OC(C)C)ccc3o2)cc1		inactive: 10.7%
C/C(=N/NC(N)=S)c1cc2ccc(O)cc2oc1=O	inconclusive: 0.316 µM [inhibitor, partial curve]	
COC(=O)Cn1cnc(=O)c(C#N)c1/C=C/N(C)C	inconclusive: 39.8 µM [inhibitor, single point]	
Cc1ccc(NC(=S)NNc2ccc([N+](=O)[O-])cc2S(=O)(=O)Nc2ccccc2C(=O)O)cc1C	inconclusive: 28.2 µM [inhibitor, single point]	
O=C(COc1ccc2oc(-c3ccco3)cc(=O)c2c1)N1CCCCC1	inconclusive: 39.8 µM [inhibitor, single point]	
COc1cccc(/C=N/Nc2ccc([N+](=O)[O-])cc2)c1O		inactive: -4.96%
Cc1ccc(-n2ncc3c2CC(C)(C)CC3NC(=O)CCCN2CCCCC2=O)cc1 (stereo unspecified)	inconclusive: 0.316 µM [inhibitor, full curve, poor fit]	
O=S(=O)(Nc1cc(Sc2ncn[nH]2)c(O)c2ccccc12)c1ccccc1	active: 22.4 µM	
O=C(Nc1ccccc1F)c1coc(=O)c(Br)c1		inactive: -22.8%
C=CCNc1nc(NCC)nc(N2CCOCC2)n1	inconclusive: 39.8 µM [inhibitor, single point]	
CCCNc1nc(Nc2ccc(C)cc2)nc(N2CCCC2)n1		inactive: -14.1%
C=C(C)CSc1nnc(-c2cccc(Cl)c2)n1N		inactive: -3.55%
COCCCNC(=O)CC(NS(=O)(=O)c1ccc(C)cc1)c1ccco1 (stereo unspecified)	inconclusive: 0.794 µM [inhibitor, single point]	
CCC1(C)NC(=O)N(CC(=O)Nc2sc3c(c2C(N)=O)CCC3)C1=O (stereo unspecified)		inactive: -11%
O=C(Nc1ccc(-c2nc3ccccc3s2)c(OC(=O)c2ccccc2)c1)c1ccccc1	inconclusive: 39.8 µM [inhibitor, single point]	
CCN(CC)C(=O)CSc1nnc([C@@H](N)C(C)C)o1	inconclusive: 8.91 µM [inhibitor, partial curve]	
N#CCCN1CCN(C(CNS(=O)(=O)c2ccc(Cl)cc2)c2ccccc2)CC1 (stereo unspecified)		inactive: -4.23%
NC(=O)[C@@H]1CCCNc2c(I)cc([N+](=O)[O-])cc2C(=O)N[C@@H](CCC(=O)O)C(=O)N[C@@H](CO)C(=O)N1		inactive: -7.46%
Cc1ccc(C2C(C#N)=C(N)Oc3cc4c(cc32)OCO4)cc1 (stereo unspecified)		inactive: -3.27%

Structure (SMILES)	Potency	activity change, negative = inhibition
C=CCSc1nnc(-c2nnc(SCC=C)n2CC)n1CC	inconclusive: 0.562 µM [inhibitor, full curve, poor fit]	
CCCCNC(=O)CN1C(=O)COc2ccc(S(=O)(=O)N3CCCCCC3)cc21	inconclusive: 7.08 µM [inhibitor, single point]	
COc1ccc(CC(=O)Nc2ccccc2N2CCCCC2)cc1OC	inconclusive: 39.8 µM [inhibitor, single point]	
COc1cc(C(=O)N2CCC(c3nc(-c4cccnc4)no3)CC2)cc(OC)c1OC	inconclusive: 39.8 µM [inhibitor, single point]	
Cc1cc(Cl)cc2sc(NC(=O)C3CC3)nc12	inconclusive: 11.2 µM [inhibitor, partial curve]	
COc1ccc(C2C=C(c3ccccc3)Nc3ncnn32)cc1 (stereo unspecified)	inconclusive: 39.8 µM [inhibitor, single point]	
CCOc1ccc(NC(=O)c2ccc(NC(=O)COC(=O)c3ccc(NC(=O)CC#N)cc3)cc2)cc1	inconclusive: 2.82 µM [inhibitor, full curve]	
CC(=O)Oc1ccc2ccccc2c1C(NC(=O)Cc1ccccc1)c1ccc(Cl)cc1 (stereo unspecified)	inconclusive: 8.91 µM [inhibitor, partial curve, poor fit]	
COc1cccc(-c2csc(N3CCN(C(=O)Nc4ccc(Cl)cc4)CC3)n2)c1	inconclusive: 28.2 µM [inhibitor, single point]	
Cc1cc(C)nc(NC(=O)NC(=O)c2ccccc2)n1	inconclusive: 1.78 µM [inhibitor, full curve, poor fit]	
CC1=C(C(=O)N(C)C)C(c2ccc(N3CCOCC3)cc2)NC(=O)N1 (stereo unspecified)	inconclusive: 0.562 µM [inhibitor, single point]	
CN=c1scc(C)n1/N=C/c1ccc(O)c(O)c1O	inconclusive: 39.8 µM [inhibitor, single point]	
COc1ccc(/C=N/OCc2ccc(Br)cc2)c(OC)c1	inconclusive: 11.2 µM [inhibitor, partial curve, poor fit]	
Cc1cc(/C=C(\C#N)C(=O)NC2CCCCCC2)c(C)n1C	inconclusive: 39.8 µM [inhibitor, single point]	
COc1ccc(-c2nc3cnccn3c2NCc2ccccc2)cc1SC1CCCCC1	inconclusive: 17.8 µM [inhibitor, partial curve]	
NC(=O)C(=O)N/N=C/c1c2ccccc2cc2ccccc12		inactive: -7.7%
CCCC(=O)C1=C(N2CCCC2)CC(C)(C)C(C(=O)OC)C1=O (stereo unspecified)		inactive: -3.48%
Cc1cn(C)c(CC(=O)N2CCN(c3cccc(C(F)(F)F)c3)CC2)c1C(=O)O		inactive: -0.0568%
CC(=O)Nc1c(O)c2ccccc2[nH]c1=O		inactive: -7.08%
CCOc1ccc(NC(=O)N2CCC(n3nnc4ccccc43)CC2)cc1		inactive: -4.43%
O=C(CSc1nc(-c2ccc(F)cc2)nc2c1Cc1ccccc1O2)Nc1cccc(C(=O)O)c1	active: 12.6 µM	
N#Cc1ccc(C(=O)Nn2cnnc2)cc1	inconclusive: 0.141 µM [inhibitor, full curve, poor fit]	
COC(=O)c1ccc(C2C=C(c3ccc(Cl)cc3)Nc3nc4ccccc4n32)cc1 (stereo unspecified)	inconclusive: 3.98 µM [inhibitor, full curve, poor fit]	

3 compounds already listed, sorted by length of the SMILES, rising:
Structure (SMILES)	Potency	activity change, negative = inhibition
COc1ccc(CC(=O)Nc2ccccc2N2CCCCC2)cc1OC	inconclusive: 39.8 µM [inhibitor, single point]	
CC1=C(C(=O)N(C)C)C(c2ccc(N3CCOCC3)cc2)NC(=O)N1 (stereo unspecified)	inconclusive: 0.562 µM [inhibitor, single point]	
COc1cccc(-c2csc(N3CCN(C(=O)Nc4ccc(Cl)cc4)CC3)n2)c1	inconclusive: 28.2 µM [inhibitor, single point]	
